US5849737A, “Compositions and methods for treating pain” (priority 1995, dated 1998)

How the values were obtained:
[1] = system: neurons in Rexed lamina V; conditions: decerebrate cats; high threshold mechanical and noxious thermal stimuli; cited from earlier work
[2] = Motor or other evident toxic effects after i.p. administration; conditions: i.p. lidocaine 60 mg/kg; 3-OHL 15 mg/kg

## CCN(CC)CC(=O)Nc1c(C)cccc1C [lidocaine]
[1]
  plasma concentration with dose-related suppression of Rexed lamina V neurons: 3 to 10 µg/mL
[2]
  motor or other evident toxic effects: No motor or other evident toxic effects
